Source: article doi:10.1101/822965
No constants are given. Whether binding was seen depends on the method and setting. In cells and extracts the contact can be indirect. Binding can be weak; no strength is given.

Sequences of proteins named here, by UniProt entry; tags and fusion partners are left off. A change or cut given only in a name is not applied to a line headed by its entry.
UniProt P46379: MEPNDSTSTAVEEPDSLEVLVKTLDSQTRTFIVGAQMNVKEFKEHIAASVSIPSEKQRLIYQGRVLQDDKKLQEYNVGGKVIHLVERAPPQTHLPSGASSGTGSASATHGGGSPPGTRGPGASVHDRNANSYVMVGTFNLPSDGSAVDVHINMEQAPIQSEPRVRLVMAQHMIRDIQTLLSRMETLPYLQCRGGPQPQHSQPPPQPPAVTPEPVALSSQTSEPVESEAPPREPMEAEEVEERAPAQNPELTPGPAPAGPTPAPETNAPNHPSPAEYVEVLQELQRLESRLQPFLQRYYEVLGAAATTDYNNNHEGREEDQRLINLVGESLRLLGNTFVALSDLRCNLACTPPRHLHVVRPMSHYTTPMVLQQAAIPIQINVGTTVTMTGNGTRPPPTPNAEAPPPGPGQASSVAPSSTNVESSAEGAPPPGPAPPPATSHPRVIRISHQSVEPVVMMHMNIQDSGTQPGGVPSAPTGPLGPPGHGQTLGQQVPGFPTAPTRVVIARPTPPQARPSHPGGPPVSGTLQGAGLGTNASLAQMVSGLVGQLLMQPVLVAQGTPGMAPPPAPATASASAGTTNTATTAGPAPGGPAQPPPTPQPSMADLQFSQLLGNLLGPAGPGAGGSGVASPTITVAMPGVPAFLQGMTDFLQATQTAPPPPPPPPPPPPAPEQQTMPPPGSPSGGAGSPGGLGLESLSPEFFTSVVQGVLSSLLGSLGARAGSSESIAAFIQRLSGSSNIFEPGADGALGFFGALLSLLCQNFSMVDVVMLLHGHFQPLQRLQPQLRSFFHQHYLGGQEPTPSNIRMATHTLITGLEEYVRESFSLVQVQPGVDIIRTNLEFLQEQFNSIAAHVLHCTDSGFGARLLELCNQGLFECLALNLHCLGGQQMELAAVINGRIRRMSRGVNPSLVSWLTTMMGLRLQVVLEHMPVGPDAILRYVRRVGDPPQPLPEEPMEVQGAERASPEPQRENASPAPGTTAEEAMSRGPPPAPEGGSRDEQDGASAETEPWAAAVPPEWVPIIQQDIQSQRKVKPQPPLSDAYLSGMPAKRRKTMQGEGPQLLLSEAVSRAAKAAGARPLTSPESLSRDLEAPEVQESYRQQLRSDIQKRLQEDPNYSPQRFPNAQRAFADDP
UniProt P18850: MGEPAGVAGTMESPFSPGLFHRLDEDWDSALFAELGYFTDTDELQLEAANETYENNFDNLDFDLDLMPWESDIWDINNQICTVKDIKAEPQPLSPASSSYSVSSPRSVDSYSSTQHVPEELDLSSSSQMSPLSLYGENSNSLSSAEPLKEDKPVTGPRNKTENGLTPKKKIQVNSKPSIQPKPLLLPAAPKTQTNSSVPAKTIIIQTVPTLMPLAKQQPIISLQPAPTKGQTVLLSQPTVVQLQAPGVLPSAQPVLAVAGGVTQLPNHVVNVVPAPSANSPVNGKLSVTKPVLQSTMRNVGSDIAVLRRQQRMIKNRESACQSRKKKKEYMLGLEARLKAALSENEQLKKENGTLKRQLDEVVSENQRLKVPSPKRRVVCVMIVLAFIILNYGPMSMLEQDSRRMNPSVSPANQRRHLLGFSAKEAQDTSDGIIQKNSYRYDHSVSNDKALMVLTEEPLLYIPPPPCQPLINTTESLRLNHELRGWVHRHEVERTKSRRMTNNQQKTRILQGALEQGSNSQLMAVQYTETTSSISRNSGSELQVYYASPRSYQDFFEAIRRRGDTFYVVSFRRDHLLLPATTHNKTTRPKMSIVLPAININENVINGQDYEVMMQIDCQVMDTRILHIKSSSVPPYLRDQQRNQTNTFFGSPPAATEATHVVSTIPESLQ

Molecular target: BAG6 (BCL2-associated athanogene 6) (UniProt P46379)
Experiment: co-IP

- binding: binds
Substance: ATF6 Y567A (from UniProt P18850)
